The whole screen tested about 400,000 compounds, of which about 13,000 (3.2%) were called active. The inconclusive results got no clear call from the source; some entries with a clear call stand among them for comparison. Calls come from the whole dose curve; as a rule, active = well fitted cell-killing curve with a large enough effect; inconclusive = small, poorly fitted or top-dose-only effect, or effect the other way; inactive = flat fitted curve, though single readings scatter. A potency beside an inconclusive call is a rough fit, not a confirmed value.
Test: qHTS assay for MDR1-selective chemotherapeutics: Primary screen using the drug-selected MDR subline cells KB-V1; note: nearly all actives have a fitted effect of over 60% in size
Conditions: KB-V1 MDR cells viability, CellTiter-Glo, 72 h; series mostly up to 46.1 µM
In short: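 KB-V1 MDR subline cells in DMEM (phenol-red free, 10% FBS) exposed to compounds in qHTS concentration series for 72 h at 37 degrees C. Viability read by CellTiter-Glo luminescence; concentration-effect curves fitted after normalization and correction.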
Potency is the fitted concentration of half-maximal effect.

| SMILES | Potency |
| --- | --- |
| CC(C)CCNC(=O)C1CCC(CNS(=O)(=O)c2cccc3nsnc23)CC1 (centres undefined) | inconclusive: 20.6 µM [cytotoxic, partial curve, poor fit] |
| Cc1ccccc1NC(=S)NC(=O)CCc1ccccc1 | inconclusive: 23.1 µM [cytotoxic, single point] |
| CCc1ccc(NC(=O)CN2C(C(=O)OC)=C(c3ccccc3)c3ccccc3S2(=O)=O)cc1 | inconclusive: 20.6 µM [cytotoxic, single point] |
| CN(C)c1ccc(/C=N/N(CCO)C2=NS(=O)(=O)c3ccccc32)cc1 | inactive |
| CCN(CC)S(=O)(=O)c1ccc(NC(=O)CSc2cccc[n+]2[O-])cc1 | inactive |
| Cc1cc(NC(=O)CSc2nc(C(C)C)nc3c2c(=O)n(C)c(=O)n3C)no1 | inconclusive: 23.1 µM [cytotoxic, single point] |
| COc1ccc2nc(NC(=O)c3ccco3)sc2c1 | inactive |
| Cc1cccc(NC(=O)c2oc3ccccc3c2NC(=O)Cc2coc3cc(C)cc(C)c23)c1 | inactive |
| O=C(CN1CCC(NC(=O)Nc2ccccc2-c2ccccc2)CC1)NCc1ccco1 | inconclusive: 18.4 µM [cytotoxic, single point] |
| CCCCC(O)(CCCC)C(=O)NN(C(=O)OCC)c1ccccc1 | active: 13 µM |
| CCOC(=O)c1ccccc1NS(=O)(=O)c1ccc(OCC)cc1 | inconclusive: 20.6 µM [cytotoxic, single point] |
| O=S(=O)(Nc1nc2ccccc2[nH]1)c1ccccc1 | active: 20.6 µM |
| COc1cc(OC)cc(OC(=O)c2ccc3c(=O)n4c(nc3c2)CCC4)c1 | inactive |
| COc1ccc(S(=O)(=O)N2CCOC2CNC(=O)C(=O)NCCN2CCOCC2)cc1 (centres undefined) | inconclusive: 18.4 µM [rising, single point] |
| C[C@@H]1CN([C@H](C)CO)C(=O)c2cc(C#CC3CC3)cnc2O[C@H]1CN(C)S(C)(=O)=O | inconclusive: 20.6 µM [rising, single point] |
| Cn1nnc2cc(C(=O)Nc3ccc4ccccc4c3)ccc21 | inactive |
| CCCCN(C)C(=O)c1nc2ccccn2c1CN1CCN(c2ccccn2)CC1 | inconclusive: 7.31 µM [cytotoxic, partial curve] |
| c1ccc2c(c1)nc(Nc1ccc(N3CCCCC3)cc1)c1nncn12 | inactive |
| COc1ccccc1CNc1ncnc2c1nc1n2CCCC1 | inconclusive: 29.1 µM [cytotoxic, single point] |
| Cc1ccc(S(=O)(=O)Nc2nc3ccccc3nc2N2CCN(c3ccccc3F)CC2)cc1 | inactive |
| COc1cc(C(=O)NCCNc2nc3cc(C)ccc3cc2C#N)cc(OC)c1OC | inactive |
| COC(=O)c1sccc1NC(=S)N1CCN(c2cccc(C)c2C)CC1 | inconclusive: 18.4 µM [cytotoxic, single point] |
| Cc1ccc(S(=O)(=O)Nc2ccccc2N2CCOCC2)cc1 | inconclusive: 29.1 µM [cytotoxic, single point] |
| CC1CCN(S(=O)(=O)c2ccc3c(c2)N(CC(=O)NCCN(C)C)C(=O)CS3)CC1 | inconclusive: 8.2 µM [rising, partial curve] |
| Cc1ccc(S(=O)(=O)NCC(c2ccco2)N2CCc3ccccc3C2)cc1 (centres undefined) | inactive |

A portion from the list above, as a working copy:

| SMILES | Potency |
| --- | --- |
| CCN(CC)S(=O)(=O)c1ccc(NC(=O)CSc2cccc[n+]2[O-])cc1 | inactive |
| Cc1cc(NC(=O)CSc2nc(C(C)C)nc3c2c(=O)n(C)c(=O)n3C)no1 | inconclusive: 23.1 µM [cytotoxic, single point] |
| COc1ccc2nc(NC(=O)c3ccco3)sc2c1 | inactive |
| Cc1cccc(NC(=O)c2oc3ccccc3c2NC(=O)Cc2coc3cc(C)cc(C)c23)c1 | inactive |
| O=C(CN1CCC(NC(=O)Nc2ccccc2-c2ccccc2)CC1)NCc1ccco1 | inconclusive: 18.4 µM [cytotoxic, single point] |
| CCCCC(O)(CCCC)C(=O)NN(C(=O)OCC)c1ccccc1 | active: 13 µM |
| CCOC(=O)c1ccccc1NS(=O)(=O)c1ccc(OCC)cc1 | inconclusive: 20.6 µM [cytotoxic, single point] |
| O=S(=O)(Nc1nc2ccccc2[nH]1)c1ccccc1 | active: 20.6 µM |
| COc1cc(OC)cc(OC(=O)c2ccc3c(=O)n4c(nc3c2)CCC4)c1 | inactive |
| COc1ccc(S(=O)(=O)N2CCOC2CNC(=O)C(=O)NCCN2CCOCC2)cc1 (centres undefined) | inconclusive: 18.4 µM [rising, single point] |
| C[C@@H]1CN([C@H](C)CO)C(=O)c2cc(C#CC3CC3)cnc2O[C@H]1CN(C)S(C)(=O)=O | inconclusive: 20.6 µM [rising, single point] |

Next records

| SMILES | Potency |
| --- | --- |
| O=S(=O)(N=C1C=CC(=NS(=O)(=O)c2ccccc2)c2ccccc21)c1ccccc1 | inactive |
| Cc1ccc(NC(=O)C2=C(C(=O)O)CCCC2)cc1F | inactive |
| Cc1ccc(C(=O)Nc2ccc(CC(=O)O)cc2)o1 | inactive |
| CNC(=S)N1CCC(Cc2ccccc2)CC1 | inactive |
| Cc1ccc(C(=O)NC(=S)Nc2c(C)ccc3nsnc23)cc1 | inconclusive: 29.1 µM [cytotoxic, single point] |
| CCCCCCN(C(=O)CCCN1C(=O)NC(c2ccc([N+](=O)[O-])cc2)C(C(=O)OCc2ccccc2)=C1C)C(C)C(=O)NCCCC (centres undefined) | inactive |
| CN(C)c1ccc(-c2ccnc3c2CC(C)(C(=O)NCc2cccs2)O3)cc1 (centres undefined) | inactive |
| Cc1ccc(-c2csc3ncnc(N4CCN(C(=O)c5ccccc5)CC4)c23)cc1 | inconclusive: 16.4 µM [cytotoxic, single point] |
| Cc1cccc(NC(=S)N(CCN(C)C)Cc2cc3cccc(C)c3[nH]c2=O)c1 | active: 16.4 µM |
| COc1ccc(C(=O)OCc2ccccc2F)cc1S(=O)(=O)N1CCCC1 | active: 16.4 µM |
| Cc1ccc(SCC(=O)c2c(C)nc3ccccn23)cc1 | inconclusive: 11.6 µM [cytotoxic, partial curve, poor fit] |
| Fc1ccc(-n2nc(-c3ccccc3)c3cnc4ccccc4c32)cc1Cl | inactive |
| Cc1oc2ncnc(N3CCOCC3)c2c1C(=O)Nc1ccc(Br)cc1F | inactive |
| CN(CC(=O)Nc1ccccc1Br)C(=O)c1cccc(S(=O)(=O)NCc2ccccc2)c1 | inconclusive: 14.6 µM [cytotoxic, single point] |
| OC(c1ccc(Cl)c(Cl)c1)c1ncc(-c2cccc(F)c2)[nH]1 (centres undefined) | inactive |
| CCOC(=O)c1sc(Nc2nc(C)cc(OC)n2)nc1C | inactive |
| CN(C)c1cccc(Nc2ccc(-c3ccc(OC(F)(F)F)cc3)cn2)c1 | inactive |
| CN(Cc1cccnc1)C(=O)CC1C(=O)NCCN1CC(c1ccccc1)c1ccccc1 (centres undefined) | inconclusive: 25.9 µM [rising, single point] |
| CC(=O)c1cccc(NC(=O)c2cc3sc(Cl)cc3n2C)c1 | inactive |
| COc1cccc(C(c2nnnn2C2CCCC2)N2CCN(C/C=C/c3ccccc3)CC2)c1OC (centres undefined) | inconclusive: 16.4 µM [cytotoxic, single point] |
| O=C(CC(O)(C(F)(F)F)C(F)(F)F)Nc1ccc(Cl)c(Cl)c1 | active: 3.26 µM |
| CC(C)c1ccc(NC(=S)Nc2ccc3[nH]c(=O)[nH]c3c2)cc1 | inconclusive: 29.1 µM [rising, single point] |
| COc1ccc2nc(C)cc(N/N=C/c3ccc(F)cc3)c2c1 | inconclusive: 23.1 µM [cytotoxic, single point] |
| CCCOC(=O)c1c(-c2ccccc2)nc(CC)c(C(=O)SCC)c1CCC | inconclusive: 29.1 µM [cytotoxic, single point] |
